Results: PubChem BioAssay AID448 (National Center for Advancing Translational Sciences (NCATS), 2006)
The campaign covered roughly 65,000 compounds. About 45 (0.07%) were called active. Inconclusive results, whose numbers are uncertain, are shown with a selection of clear calls. The call rests on the fitted dose curve. A potency beside an inconclusive call is a rough fit, not a confirmed value.

These molecules were tested on Schistosoma mansoni peroxiredoxin 2 (Prx2) (assay: Schistosoma Mansoni Peroxiredoxins (Prx2)). Conditions: S. mansoni Prx2 activity coupled to TGR/GSH (TGR is thioredoxin glutathione reductase), NADPH fluorescence loss, qHTS.
Outline: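 Prx2 activity was followed as the loss of NADPH fluorescence (ex 365/em 450 nm), read every 30 sec for 8 min after H2O2 start. The enzyme mix (50 nM Prx2, 25 nM TGR, GSH, NADPH; pH 7.4 phosphate buffer) was incubated with compound for 15 min at room temperature first.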
Potency means the concentration at half of the fitted maximal effect.

Structure (SMILES)	Potency
CCC(C)[C@@H](C(=O)Nc1ccc(OC)c(OC)c1)N1Cc2ccccc2C1=O (stereo not given in full)	inactive: > 57 µM
CCOC(OCC)P(=O)(C(C)C)C(C)C	inconclusive: 74.1 µM [single point]
Cc1ccc2nc(/C(C#N)=N/O)[nH]c2c1	inconclusive: 59.9 µM [partial curve]
COc1ccc(NC(=O)c2ccco2)c(NC(=O)Cc2cccs2)c1	inconclusive: 59 µM [partial curve]
COc1ccc(C2CC(=O)N3CN(c4ccc(C)c(Cl)c4)CSC3=C2C#N)cc1OC (stereo not given)	inactive: > 57 µM
COCC(=O)N1CCC[C@@]2(CCN(Cc3ccc(C#N)cc3)C2)C1	inactive: > 57 µM
Cc1cnc(CNc2ncncc2-c2ccccc2C(F)(F)F)cn1	inactive: > 57 µM
CCC(=O)Oc1ccc2c(C)cc(=O)oc2c1C	inconclusive: 32.7 µM [partial curve]
Cc1noc(C)c1S(=O)(=O)N1CCC(C(=O)NCCC2=CCCCC2)CC1	inconclusive: 56.7 µM [single point]
COc1ccc(S(=O)(=O)N2CCN(C(=O)NC3CCCCC3)CC2)cc1OC	inconclusive: 136 µM [partial curve]
O=C(CN1C2=NCCN2c2ccccc21)C12CC3CC(CC(C3)C1)C2	inconclusive: 83.1 µM [partial curve]
COC(=O)c1ccccc1NC(=O)COC(C)=O	inconclusive: 58.3 µM [single point]
COc1ccccc1CNc1cc(-c2ccccc2CN(C)C)ncn1	inactive: > 57 µM
COC(=O)c1nc(NC(=O)C(C)C)n[nH]1	inconclusive: 18.5 µM [partial curve]
Cc1sc(NC(=O)CSc2nnc(C)c(=O)[nH]2)c(C#N)c1C	inconclusive: 77 µM [partial curve]
CN(C)Cc1cc(C(C)(C)C)cc(CNC2CCCCC2)c1O	inactive: > 57 µM
O=c1cc(-c2ccccc2O)oc2c(O)c(O)ccc12	inconclusive: 49.4 µM [single point]
Cc1[nH]c2ccccc2c1C(O)CN1CCN(c2cccc(C(F)(F)F)c2)CC1 (stereo not given)	inconclusive: 78.9 µM [single point]
Cc1cc(C)c2c(=O)n(CC(=O)NCCCN3CCOCC3)sc2n1	inconclusive: 69 µM [single point]
O=C(Cn1cnc2c(cnn2-c2ccc(Cl)cc2)c1=O)NCC1CCCO1 (stereo not given)	inconclusive: 81.6 µM [partial curve]
NC(=O)c1ccccc1NS(=O)(=O)c1cccs1	inconclusive: 74.9 µM [single point]
COc1ccc(N2CCN(C(=O)C(CCSC)N=C3NS(=O)(=O)c4ccccc43)CC2)cc1 (stereo not given)	inconclusive: 57.7 µM [single point]
COc1cc(CNc2ccc3c(c2)CCC3)cc(OC)c1O	inconclusive: 32.2 µM [partial curve]
Cc1nnc(NC(=O)CSc2nnc(Cc3cccn3C)n2C)s1	inconclusive: 71.2 µM [single point]
O=C(c1ccccc1)[C@H]1[C@H](c2ccccc2[N+](=O)[O-])N1C1CCCCC1 (stereo not given in full)	inactive: > 57 µM

Taken from above.
Potency, COc1ccccc1CNc1cc(-c2ccccc2CN(C)C)ncn1 is entered as inactive: > 57 µM
Potency, COCC(=O)N1CCC[C@@]2(CCN(Cc3ccc(C#N)cc3)C2)C1 is entered as inactive: > 57 µM
Potency, Cc1sc(NC(=O)CSc2nnc(C)c(=O)[nH]2)c(C#N)c1C is entered as inconclusive: 77 µM [partial curve]
Potency, O=C(Cn1cnc2c(cnn2-c2ccc(Cl)cc2)c1=O)NCC1CCCO1 (stereo not given) is entered as inconclusive: 81.6 µM [partial curve]

Going on with the list:

Structure (SMILES)	Potency
COc1ccc(C2CC(C(F)(F)F)n3nc(CO)c(Cl)c3N2)cc1OC (stereo not given)	inconclusive: 60.9 µM [single point]
O=C(C1CCN(S(=O)(=O)c2cccc3cccnc23)CC1)N1CCN(c2ccccc2)CC1	inconclusive: 70.1 µM [single point]
Oc1ccc(CNc2ccc(F)cc2)c2cccnc12	inconclusive: 49 µM [partial curve]
CCNc1ncc2nc(CCc3ccccc3)c(=O)n(C)c2n1	inactive: > 57 µM
O=C(NCCN1CCCC1)C1(S(=O)(=O)c2ccc(Cl)cc2)CC1	inactive: > 57 µM
CCOC(=O)c1[nH]c(=O)[nH]c1COC(=O)c1cc2ccccc2o1	inconclusive: 48.5 µM [partial curve]
CC(C)CCN1C(=O)CCC1(C)C(=O)NC1CCCCCC1 (stereo not given)	inconclusive: 89.8 µM [partial curve]
COC(=O)c1ccc(CN(c2ccccc2OC)S(=O)(=O)c2cccs2)o1	inconclusive: 76.4 µM [single point]
COC(=O)c1[nH]c2cc(OC)c(OC)cc2c1NC(=O)c1cccc(OC)c1	inconclusive: 197 µM [partial curve]
Cc1nc2ncnn2c(N2CCN(c3cccc(C(F)(F)F)c3)CC2)c1C	inconclusive: 73.1 µM [partial curve]
Cc1cccc(N2CCN(C(=O)c3ccc(N4CCCC4=O)cc3)CC2C)c1 (stereo not given)	inactive: > 57 µM
O=S1(=O)C=C(Sc2nc3cc(Cl)ccc3o2)c2ccccc21	inconclusive: 55.4 µM [partial curve]
N#Cc1c(NC(=O)CSc2nnnn2C2CCCC2)sc2c1CCCC2	inconclusive: 81 µM [partial curve]
COc1cc2cc3c4cc(OC)c(OC)cc4cc[n+]3c(C)c2cc1OC	inconclusive: 26 µM [partial curve]
CCNc1ncc2nc(CCc3ccccc3)c(=O)n(C[C@H]3CCCO3)c2n1	inactive: > 57 µM
Cc1cc(C)nc(SCNC(=O)c2ccc(F)cc2)n1	inconclusive: 385 µM [partial curve]
Cn1c(=O)oc2cc(S(=O)(=O)N3CCC(C(=O)NCC4COc5ccccc5O4)CC3)ccc21 (stereo not given)	inactive: > 57 µM
CCOC(=O)N1CCC(NC(=O)c2cc(C)c3c(C)nn(-c4ccccc4)c3n2)CC1	inconclusive: 78.2 µM [single point]
Nc1cc(OC(=O)c2ccccc2Br)nn1S(=O)(=O)c1ccccc1	inconclusive: 70.7 µM [partial curve]
Cc1cc(NC(=O)CSc2nc3c(c(=O)n2Cc2ccccc2)SC(C)C3)no1 (stereo not given)	inconclusive: 37.4 µM [partial curve]
Cc1ccc(-c2cn(S(=O)(=O)c3cccc4nsnc34)nc2N)cc1	inactive: > 57 µM
CCOC(=O)CNS(=O)(=O)c1ccc(C(=O)O)cc1	inactive: > 57 µM
COc1ccc(C)cc1-n1nnnc1SCc1cc(=O)n2cc(C)ccc2n1	inconclusive: 50.2 µM [single point]
O=[N+]([O-])c1ccc(S(=O)(=O)Cc2ccccc2)c([N+](=O)[O-])c1	inconclusive: 32.9 µM [partial curve]
CCC(=O)Nc1cccc(C(=O)c2ccccc2)c1	inconclusive: 0.0533 µM [partial modulator]

Structure (SMILES)	Potency
O=[As](O)(O)c1ccc(N=Nc2ccc(O)cc2)cc1	inconclusive: 92.9 µM [single point]
CC1=NN(c2ccccc2)C(=O)[C@@H]1N=Nc1ccc([As](=O)(O)O)c(O)c1	inconclusive: 59.9 µM [single point]
Cc1csc(NC(=O)CSc2nc3sc(C)c(C)c3c(=O)[nH]2)n1	inconclusive: 41 µM [partial curve]
NS(=O)(=O)c1cc2c(cc1Cl)=NC(CCC(=O)O)=NS=2(=O)O	inactive: > 57 µM
Clc1ccc(-c2nnc(SCc3nc(-c4ccccc4)no3)o2)cc1	inactive: > 57 µM
CN(C)CC[C@@H](C(=O)C(C)(C)C)c1ccccn1	inactive: > 57 µM
COC(=O)[C@@]1(Cc2ccccc2)[C@H]2c3cc(C(=O)N4CCCC4)n(CC4CC4)c3C[C@H]2CN1C(=O)c1ccccc1	inactive: > 57 µM
Cc1nc2ccc(S(=O)(=O)NC(C(=O)Nc3nccs3)C(C)C)cc2s1 (stereo not given)	inactive: > 57 µM
CN(C)CCCNc1oc(-c2ccccc2)nc1C#N	inconclusive: 33.8 µM [single point]
Cc1c(C(=O)OCc2ccccc2)[nH]c2c1C(=O)CC(c1ccco1)C2 (stereo not given)	inactive: > 57 µM
CCc1cccc2c3c([nH]c12)[C@](CC)(CC(=O)O)OCC3	inactive: > 57 µM
Brc1ccc(-c2nn3c(-c4ccccn4)nnc3s2)o1	inconclusive: 68.9 µM [single point]
CCCc1cc2c(n1CCc1ccc(Cl)cc1)C(C)C1CN(C(=O)c3ccccc3)C(C)(C(=O)OC)C21 (stereo not given)	inactive: > 57 µM
COc1ccc(OC)c(NC(=O)NC2(C(F)(F)F)Oc3ccccc3O2)c1	inconclusive: 2.41 µM [partial modulator]
CC(C)(C)c1cc(C(c2cccnc2)N2CCN(CCO)CC2)cc(C(C)(C)C)c1O (stereo not given)	inconclusive: 68.2 µM [single point]
CCCNC(=O)C1CN(S(=O)(=O)c2ccccc2)CCN1S(=O)(=O)c1ccccc1 (stereo not given)	inconclusive: 73.5 µM [partial curve]
O=C(CSc1nnc(CNc2ccccc2)o1)N1CCc2ccccc21	inactive: > 57 µM
COc1ccc(C2(C(=O)Nc3cc(C)on3)CCOCC2)cc1	inconclusive: 62 µM [single point]
Cc1c(N=c2c(=O)c3ccccc3c2=O)c(=O)n(-c2ccccc2)n1C	inconclusive: 144 µM [partial curve]
O=[N+]([O-])c1cc([As](=O)(O)O)ccc1O	inconclusive: 62.4 µM [single point]
CC1(C)C(=O)OC(c2cccs2)C(C)(C)C1=O (stereo not given)	inconclusive: 74.3 µM [single point]
Cc1c(Nc2cc(=O)oc3ccccc23)c(=O)n(-c2ccccc2)n1C	inactive: > 57 µM
CC(C)(C)c1cc(CN2CCCC(O)C2)c(O)c(C(C)(C)C)c1 (stereo not given)	inconclusive: 80.7 µM [single point]
CCOCC(=O)N1CCCC(C(=O)OCC)C1 (stereo not given)	inconclusive: 76.3 µM [single point]
CCOc1cc(C)c(S(=O)(=O)N2CCCC2)cc1C	inactive: > 57 µM
